Measured values published in US20240123070A1, “EPITOPE PEPTIDE OF RAS G13D MUTANT AND T CELL RECEPTOR RECOGNIZING RAS G13D MUTANT” (SHANGHAI GENBASE BIOTECHNOLOGY CO., LTD., priority 2021, published 2024).

system: murine TCRβ constant region; assay: mTCRβ expression detection on Jurkat-NFAT-Luc cells; assay type: cell-based; conditions: TCR mutant transduced Jurkat-NFAT-Luc cells

Row | Molecule | mTCRβ % [%]
1 | β95Q-A: B8.2.4 TCR point mutant, Vβ-CDR3 95Q to A; CDR3β ASSATVPPQH (protein) TCR alpha: AQKITQTQPGMFVQEKEAVTLDCTYDTSDPSYGLFWYKQPSSGEMIFLIYQGSYDQQNATEGRYSLNFQKARKSANLVISASQLGDSAMYFCAMRERTGTASKLTFGTGTRLQVTLDIQNPEPAVYQLKDPRSQDSTLCLFTDFDSQINVPKTMESGTFITDKTVLDMKAMDSKSNGAIAWSNQTSFTCQDIFKETNATYPSSDVPCDATLTEKSFETDMNLNFQNLSVMGLRILLLKVAGFNLLMTLRLWSS TCR beta: DVKVTQSSRYLVKRTGEKVFLECVQDMDHENMFWYRQDPGLGLRLIYFSYDVKMKEKGDIPEGYSVSREKKERFSLILESASTNQTSMYLCASSATVPPQHFGDGTRLSILEDLRNVTPPKVSLFEPSKAEIANKQKATLVCLARGFFPDHVELSWWVNGKEVHSGVSTDPQAYKESNYSYCLSSRLRVSATFWHNPRNHFRCQVQFHGLSEEDKWPEGSPKPVTQNISAEAWGRADCGITSASYQQGVLSATILYEILLGKATLYAVLVSTLVVMAMVKRKNS | 74.9
2 | β95Q-C: B8.2.4 TCR point mutant, Vβ-CDR3 95Q to C; CDR3β ASSCTVPPQH (protein) TCR alpha: AQKITQTQPGMFVQEKEAVTLDCTYDTSDPSYGLFWYKQPSSGEMIFLIYQGSYDQQNATEGRYSLNFQKARKSANLVISASQLGDSAMYFCAMRERTGTASKLTFGTGTRLQVTLDIQNPEPAVYQLKDPRSQDSTLCLFTDFDSQINVPKTMESGTFITDKTVLDMKAMDSKSNGAIAWSNQTSFTCQDIFKETNATYPSSDVPCDATLTEKSFETDMNLNFQNLSVMGLRILLLKVAGFNLLMTLRLWSS TCR beta: DVKVTQSSRYLVKRTGEKVFLECVQDMDHENMFWYRQDPGLGLRLIYFSYDVKMKEKGDIPEGYSVSREKKERFSLILESASTNQTSMYLCASSCTVPPQHFGDGTRLSILEDLRNVTPPKVSLFEPSKAEIANKQKATLVCLARGFFPDHVELSWWVNGKEVHSGVSTDPQAYKESNYSYCLSSRLRVSATFWHNPRNHFRCQVQFHGLSEEDKWPEGSPKPVTQNISAEAWGRADCGITSASYQQGVLSATILYEILLGKATLYAVLVSTLVVMAMVKRKNS | 82.1
3 | β95Q-D: B8.2.4 TCR point mutant, Vβ-CDR3 95Q to D; CDR3β ASSDTVPPQH (protein) TCR alpha: AQKITQTQPGMFVQEKEAVTLDCTYDTSDPSYGLFWYKQPSSGEMIFLIYQGSYDQQNATEGRYSLNFQKARKSANLVISASQLGDSAMYFCAMRERTGTASKLTFGTGTRLQVTLDIQNPEPAVYQLKDPRSQDSTLCLFTDFDSQINVPKTMESGTFITDKTVLDMKAMDSKSNGAIAWSNQTSFTCQDIFKETNATYPSSDVPCDATLTEKSFETDMNLNFQNLSVMGLRILLLKVAGFNLLMTLRLWSS TCR beta: DVKVTQSSRYLVKRTGEKVFLECVQDMDHENMFWYRQDPGLGLRLIYFSYDVKMKEKGDIPEGYSVSREKKERFSLILESASTNQTSMYLCASSDTVPPQHFGDGTRLSILEDLRNVTPPKVSLFEPSKAEIANKQKATLVCLARGFFPDHVELSWWVNGKEVHSGVSTDPQAYKESNYSYCLSSRLRVSATFWHNPRNHFRCQVQFHGLSEEDKWPEGSPKPVTQNISAEAWGRADCGITSASYQQGVLSATILYEILLGKATLYAVLVSTLVVMAMVKRKNS | 77.1
4 | β95Q-E: B8.2.4 TCR point mutant, Vβ-CDR3 95Q to E; CDR3β ASSETVPPQH (protein) TCR alpha: AQKITQTQPGMFVQEKEAVTLDCTYDTSDPSYGLFWYKQPSSGEMIFLIYQGSYDQQNATEGRYSLNFQKARKSANLVISASQLGDSAMYFCAMRERTGTASKLTFGTGTRLQVTLDIQNPEPAVYQLKDPRSQDSTLCLFTDFDSQINVPKTMESGTFITDKTVLDMKAMDSKSNGAIAWSNQTSFTCQDIFKETNATYPSSDVPCDATLTEKSFETDMNLNFQNLSVMGLRILLLKVAGFNLLMTLRLWSS TCR beta: DVKVTQSSRYLVKRTGEKVFLECVQDMDHENMFWYRQDPGLGLRLIYFSYDVKMKEKGDIPEGYSVSREKKERFSLILESASTNQTSMYLCASSETVPPQHFGDGTRLSILEDLRNVTPPKVSLFEPSKAEIANKQKATLVCLARGFFPDHVELSWWVNGKEVHSGVSTDPQAYKESNYSYCLSSRLRVSATFWHNPRNHFRCQVQFHGLSEEDKWPEGSPKPVTQNISAEAWGRADCGITSASYQQGVLSATILYEILLGKATLYAVLVSTLVVMAMVKRKNS | 36.5
5 | β95Q-F: B8.2.4 TCR point mutant, Vβ-CDR3 95Q to F (protein) TCR alpha: AQKITQTQPGMFVQEKEAVTLDCTYDTSDPSYGLFWYKQPSSGEMIFLIYQGSYDQQNATEGRYSLNFQKARKSANLVISASQLGDSAMYFCAMRERTGTASKLTFGTGTRLQVTLDIQNPEPAVYQLKDPRSQDSTLCLFTDFDSQINVPKTMESGTFITDKTVLDMKAMDSKSNGAIAWSNQTSFTCQDIFKETNATYPSSDVPCDATLTEKSFETDMNLNFQNLSVMGLRILLLKVAGFNLLMTLRLWSS TCR beta: DVKVTQSSRYLVKRTGEKVFLECVQDMDHENMFWYRQDPGLGLRLIYFSYDVKMKEKGDIPEGYSVSREKKERFSLILESASTNQTSMYLCASSFTVPPQHFGDGTRLSILEDLRNVTPPKVSLFEPSKAEIANKQKATLVCLARGFFPDHVELSWWVNGKEVHSGVSTDPQAYKESNYSYCLSSRLRVSATFWHNPRNHFRCQVQFHGLSEEDKWPEGSPKPVTQNISAEAWGRADCGITSASYQQGVLSATILYEILLGKATLYAVLVSTLVVMAMVKRKNS | 80
6 | β95Q-G: B8.2.4 TCR point mutant, Vβ-CDR3 95Q to G; CDR3β ASSGTVPPQH (protein) TCR alpha: AQKITQTQPGMFVQEKEAVTLDCTYDTSDPSYGLFWYKQPSSGEMIFLIYQGSYDQQNATEGRYSLNFQKARKSANLVISASQLGDSAMYFCAMRERTGTASKLTFGTGTRLQVTLDIQNPEPAVYQLKDPRSQDSTLCLFTDFDSQINVPKTMESGTFITDKTVLDMKAMDSKSNGAIAWSNQTSFTCQDIFKETNATYPSSDVPCDATLTEKSFETDMNLNFQNLSVMGLRILLLKVAGFNLLMTLRLWSS TCR beta: DVKVTQSSRYLVKRTGEKVFLECVQDMDHENMFWYRQDPGLGLRLIYFSYDVKMKEKGDIPEGYSVSREKKERFSLILESASTNQTSMYLCASSGTVPPQHFGDGTRLSILEDLRNVTPPKVSLFEPSKAEIANKQKATLVCLARGFFPDHVELSWWVNGKEVHSGVSTDPQAYKESNYSYCLSSRLRVSATFWHNPRNHFRCQVQFHGLSEEDKWPEGSPKPVTQNISAEAWGRADCGITSASYQQGVLSATILYEILLGKATLYAVLVSTLVVMAMVKRKNS | 76.6
7 | β95Q-H: B8.2.4 TCR point mutant, Vβ-CDR3 95Q to H; CDR3β ASSHTVPPQH (protein) TCR alpha: AQKITQTQPGMFVQEKEAVTLDCTYDTSDPSYGLFWYKQPSSGEMIFLIYQGSYDQQNATEGRYSLNFQKARKSANLVISASQLGDSAMYFCAMRERTGTASKLTFGTGTRLQVTLDIQNPEPAVYQLKDPRSQDSTLCLFTDFDSQINVPKTMESGTFITDKTVLDMKAMDSKSNGAIAWSNQTSFTCQDIFKETNATYPSSDVPCDATLTEKSFETDMNLNFQNLSVMGLRILLLKVAGFNLLMTLRLWSS TCR beta: DVKVTQSSRYLVKRTGEKVFLECVQDMDHENMFWYRQDPGLGLRLIYFSYDVKMKEKGDIPEGYSVSREKKERFSLILESASTNQTSMYLCASSHTVPPQHFGDGTRLSILEDLRNVTPPKVSLFEPSKAEIANKQKATLVCLARGFFPDHVELSWWVNGKEVHSGVSTDPQAYKESNYSYCLSSRLRVSATFWHNPRNHFRCQVQFHGLSEEDKWPEGSPKPVTQNISAEAWGRADCGITSASYQQGVLSATILYEILLGKATLYAVLVSTLVVMAMVKRKNS | 69.2
